In patent publication US20060241157A1, “Heterocyclic ppar modulators” (priority 2003, published 2006):
For at least one compound, name, drawing or mass did not settle the structure.

Test system: Male Syrian hamsters
Assay: LDL-cholesterol, total-cholesterol and triglyceride lowering effect in hypercholesterolemic hamsters
Type: in vivo
Conditions: 200 mg/kg by gavage daily for 14 days; high-fat cholesterol-rich diet

CC(C)OC(=O)C(C)(C)Oc1ccc(C(=O)c2ccc(Cl)cc2)cc1 [fenofibrate]
total-cholesterol and triglyceride lowering effects: did not show significant efficacy
